In US20170356921A1 one finds binding data, which are given here for three molecules.

Protein sequences, listed by entry. Tags and fused reporters are not part of them. Lines headed by an entry give the natural chain unless they say otherwise; changes in a name come on top.
UniProt P80188: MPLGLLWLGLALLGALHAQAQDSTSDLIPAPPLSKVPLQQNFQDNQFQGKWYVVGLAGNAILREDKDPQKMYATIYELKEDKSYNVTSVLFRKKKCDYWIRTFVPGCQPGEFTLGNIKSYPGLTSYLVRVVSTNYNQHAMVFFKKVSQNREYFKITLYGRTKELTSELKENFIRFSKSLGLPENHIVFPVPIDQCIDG

The labels stand for the following.
B1: Anti-HNL MAB2 (antibody, V domains shown)
VH: EVQLEESGPGLVAPSQSLSITCTISGFSLTSYGIHWLRQPPGKDLEWLVVIWGDGSTTSNSALKSRLSISKDNSKSQVFFKMSGLQTDDTAIYYCARHRYSDYHAMDYWGPGTSVTVS
VL: DIVLTQSTSSLSVSLGDRVTINCRASQDISNYLNWYQEKPDGTVKLLIYFTSRLHSGVPSRFSGSGSGTDYSLTITNLEQEDIATYFCQQGNTLPWTFGGGTKLEIKR
B2: Anti-HNL MAB3 (antibody, V domains shown)
VH: EVKLQESGPGLVAPSQSLSITCTISGFSLTSYGIHWLRQPPGKDLEWLVVIWGDGSTTSNSALKSRLSISKDNSKSQVFFKMSGLQTDDTAIYYCARHRYSDYHAMDYWGPGTSVTVSS
VL: B1 VL with S7T
B3: Anti-HNL MAB1 (antibody, V domains shown)
VH: VQLQESGPDLVAPSQSLSITCTVSGFSLSSYGVHWVRQPPGKGLEWLIVMWSDGSTTSNSALKSRLSISKDNSKSQVFLKVNSLQSDDTAIYYCARHYGYFTMDYWGQGTSVTVSS
VL: DIVMTQTPATLSVTPGDSVSLSCRASQSIITDLHWYQQRSHESPRLLIKSASQSISGIPSRFSGSGSGTDFTLTINSVETEDFGMYFCQQSNSWPLTFGAGTKLELKR

Positions count from the first letter of the chain named. These are yes or no findings as the source states them, for the method shown. Some results given as binding are weak or reduced against the parent protein; the word gives no strength.

One assay addresses Human neutrophil lipocalin (HNL) (human) (UniProt P80188). The assay can be described thus: K200 chemical cross-linking, High-Mass MALDI ToF MS of antibody/antigen mix.
B1: the binding entry is given as “binds”.

Consider B2, for which the binding result is “binds”.

In the case of B3, the binding result is “binds”.

The target is the same in the next assay. Briefly: competition with pepsin peptides of HNL, cross-linking and High-Mass MALDI MS.
Consider B1, for which the binding entry is listed as “binds”.

Consider B2, for which the binding entry was “binds”.

Regarding B3, the binding result is on record as “binds”.
